Drawing on US20230107277A1, “SUBSTITUTED PYRIDAZINE COMPOUND” (Astellas Pharma Inc., priority 2020, published 2023), this text covers phototoxic effect for one molecule.

The test system of this series is 3T3. As to conditions: ICH S10 / OECD guideline 432 in vitro 3T3 NRU phototoxicity test.

Structures are written as SMILES.

As for `Cc1c(N[C@@H]2CCCC[C@H]2O)nnc(-c2ccc(C(F)(F)F)cc2O)c1C` [Example 63, 2-(6-{[(1R,2R)-2-hydroxycyclohexyl]amino}-4,5-dimethylpyridazin-3-yl)-5-(trifluoromethyl)phenol], the phototoxic effect entry is “no phototoxic effect”.
